In one experiment the target is Myc-IRS4ΔPTB (human) (UniProt O14654). In words: co-IP; HEK293FT cells transiently co-transfected; lysis in 20 mM HEPES pH 7.5, 150 mM NaCl, 1% Nonidet P-40, 1 mM sodium orthovanadate; Myc-tagged IRS4 form precipitated with anti-Myc resin, partners found by immunoblot; some panels with or without co-expressed FLAG-IRS1, FLAG-PIK3R1 or FER. In general terms: Immunoblotting shows a protein as a band on a membrane.

Chains of the proteins cited; added tags and fusions are not shown. Lines headed by an entry give the natural chain unless they say otherwise; changes in a name come on top.
UniProt O14654: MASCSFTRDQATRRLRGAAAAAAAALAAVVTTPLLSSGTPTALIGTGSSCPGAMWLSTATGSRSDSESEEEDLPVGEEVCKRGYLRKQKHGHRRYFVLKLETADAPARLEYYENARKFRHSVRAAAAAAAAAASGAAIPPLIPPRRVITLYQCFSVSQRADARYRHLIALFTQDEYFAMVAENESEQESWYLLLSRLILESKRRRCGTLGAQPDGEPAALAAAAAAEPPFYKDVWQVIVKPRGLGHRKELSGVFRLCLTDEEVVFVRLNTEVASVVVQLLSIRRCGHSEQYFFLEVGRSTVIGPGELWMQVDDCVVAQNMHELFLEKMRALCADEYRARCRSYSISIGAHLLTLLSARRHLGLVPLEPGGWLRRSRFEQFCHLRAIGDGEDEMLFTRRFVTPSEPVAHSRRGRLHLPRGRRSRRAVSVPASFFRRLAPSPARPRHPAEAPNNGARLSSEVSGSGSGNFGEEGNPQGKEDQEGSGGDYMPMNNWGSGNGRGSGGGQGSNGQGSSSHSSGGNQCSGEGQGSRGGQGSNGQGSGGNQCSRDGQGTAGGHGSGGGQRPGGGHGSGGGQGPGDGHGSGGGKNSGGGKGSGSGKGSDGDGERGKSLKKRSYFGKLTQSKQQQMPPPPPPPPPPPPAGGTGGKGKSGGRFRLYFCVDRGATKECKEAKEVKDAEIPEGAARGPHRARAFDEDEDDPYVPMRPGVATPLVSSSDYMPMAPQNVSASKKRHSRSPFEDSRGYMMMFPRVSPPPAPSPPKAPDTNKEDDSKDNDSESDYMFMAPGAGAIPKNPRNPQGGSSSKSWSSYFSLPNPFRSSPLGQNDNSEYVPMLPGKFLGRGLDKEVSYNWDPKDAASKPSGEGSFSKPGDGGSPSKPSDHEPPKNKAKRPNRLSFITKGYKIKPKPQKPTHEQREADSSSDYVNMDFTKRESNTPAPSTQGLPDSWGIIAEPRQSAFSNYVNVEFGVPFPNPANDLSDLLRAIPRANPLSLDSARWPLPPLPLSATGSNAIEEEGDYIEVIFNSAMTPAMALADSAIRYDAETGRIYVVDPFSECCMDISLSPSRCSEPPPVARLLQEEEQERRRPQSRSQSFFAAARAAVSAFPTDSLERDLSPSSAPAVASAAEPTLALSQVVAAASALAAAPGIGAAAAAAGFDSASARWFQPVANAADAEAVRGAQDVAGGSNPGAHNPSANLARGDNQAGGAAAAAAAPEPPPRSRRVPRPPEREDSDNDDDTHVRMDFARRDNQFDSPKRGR
UniProt P16591: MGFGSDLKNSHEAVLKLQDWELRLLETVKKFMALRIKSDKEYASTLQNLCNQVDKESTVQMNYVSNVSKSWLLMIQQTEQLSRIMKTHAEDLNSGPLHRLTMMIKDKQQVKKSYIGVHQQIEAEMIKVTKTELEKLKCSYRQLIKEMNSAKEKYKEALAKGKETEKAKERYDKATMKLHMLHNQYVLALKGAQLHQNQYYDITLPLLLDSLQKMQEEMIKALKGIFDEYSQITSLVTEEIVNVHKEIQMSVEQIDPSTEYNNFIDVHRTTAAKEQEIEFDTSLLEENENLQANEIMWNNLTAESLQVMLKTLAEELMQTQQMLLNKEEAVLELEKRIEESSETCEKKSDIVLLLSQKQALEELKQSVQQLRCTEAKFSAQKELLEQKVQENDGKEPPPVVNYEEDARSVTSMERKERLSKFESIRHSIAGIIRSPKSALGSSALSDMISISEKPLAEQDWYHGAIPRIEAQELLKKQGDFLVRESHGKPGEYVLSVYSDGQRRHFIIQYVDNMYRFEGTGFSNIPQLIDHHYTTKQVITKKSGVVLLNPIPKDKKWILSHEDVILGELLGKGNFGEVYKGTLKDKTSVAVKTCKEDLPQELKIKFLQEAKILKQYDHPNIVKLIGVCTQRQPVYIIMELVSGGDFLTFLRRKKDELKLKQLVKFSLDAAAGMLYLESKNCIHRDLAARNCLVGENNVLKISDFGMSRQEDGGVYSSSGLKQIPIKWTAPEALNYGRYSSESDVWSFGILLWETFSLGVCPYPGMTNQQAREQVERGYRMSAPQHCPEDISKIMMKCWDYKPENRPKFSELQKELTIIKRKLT

The next experiment deals with Myc-IRS4ΔPH (human) (UniProt O14654). The experiment is described as above.

Drawing on article PMC9098222, this text covers binding for one substance.

No constants are given. Whether binding was seen depends on the method and setting. Binding seen in cells or lysates may run through a third protein. Binding calls can cover weak binding; strength is not graded here.

For “GFP-tagged FER (from UniProt P16591 1-822) (enzyme)”, the binding entry with Myc-IRS4ΔPTB (human) and with Myc-IRS4ΔPH (human) was “binds” throughout.
